The nature of the assay: qHTS Assay for Lipid Storage Modulators in Drosophila S3 Cells.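 On cell number change: cells counted by Cell Tracker Red CMTPX staining in the red channel.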 Particulars: BODIPY lipid droplet fluorescence, 18-24 h; for cell number change: measured here: cell count max response, cells fed with added oleic acid. The method in brief: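 Drosophila S3 cells got compounds at several concentrations plus oleic acid (400 uM solution). Laser-scanning cytometry with 488 nm excitation read lipid droplets at 500-530 nm and cells at 575-640 nm. Percent activity was relative to 20 uM Triacsin C.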
(In general: qHTS replaces the single test concentration by a dilution series.)

Setting [1] is: measured here: cell number channel AC50, cells fed with added oleic acid.
[2] abbreviates: measured here: lipid fluorescence (Fed channel) AC50, cells fed with added oleic acid.

This is one part of the list. The main result of the screen is listed elsewhere. These columns were measured beside it and carry no call. The list favours compounds with an active or inconclusive main result. Words in brackets tell the shape of the fitted curve; partial curves, single points and poor fits give uncertain potencies.

What is called AC50 is the concentration at which the activity in the assay is half-maximal. The low end stands for activity at low concentration, the high end for activity only at high concentration.

On to `O=C(NCc1ccccc1CN1CCCC1)c1ccc(Cl)c(S(=O)(=O)N2CCCC2)c1`, for which the cell number change was -19.9%.
For the compound `COc1ccc(C2CC(c3ccc(Cl)cc3)n3nc(N)nc3N2)cc1` (configuration not stated), the cell number change turned out to be 9.11%.
For the compound `O=C(CSc1ncc(-c2ccccc2)[nH]1)Nc1ccccc1`, the cell number change turned out to be 7.37%.
Regarding `O=C(COC(=O)c1ccccc1Br)Nc1ccc(F)cc1`, the AC50 by setting is: under setting [1], 0.461 µM [rising, full curve]; under setting [2], 0.731 µM [rising, full curve].
On to `COc1ccc(S(=O)(=O)Nc2cc3[nH]c(=O)oc3cc2C)cc1`, for which the cell number change was -4.6%.
On to `COc1ccc(OCCC(=O)N2CCN(C)CC2)cc1`, for which the cell number change stood at 9.33%. Further, the half-maximal activity concentration (AC50) under setting [2] was 2.06 µM [rising, single point].
On to `O=[N+]([O-])c1ccccc1CNCCCCCO`, for which the cell number change amounted to 22.3%. Besides, the AC50 under setting [2] is 0.82 µM [rising, full curve, poor fit].
In the case of `CC(C)(C)c1ccc(C(=O)CCCSC2=C(C#N)C(c3ccco3)C3=C(CCCC3=O)N2)cc1` (configuration not stated), the cell number change was -14.3%. Also, the AC50 under setting [2] was 0.164 µM [falling, partial curve, poor fit].
Regarding `O=C(NCCC1=CCCCC1)C1CCCN(S(=O)(=O)c2cccnc2)C1` (configuration not stated), the cell number change was -9.09%.
Turning to `COCCCNC(=O)c1cn(Cc2c(F)cccc2Cl)nn1`, the cell number change was -22.2%. In addition, the AC50 under setting [2] is 0.184 µM [falling, full curve, poor fit].
On to `COc1ccc(-c2cc(C(F)F)n3ncc(C(=O)n4ccnc4C)c3n2)cc1`, for which the cell number change is -32.5%. The concentration at half-maximal activity (AC50) under setting [1] was 32.6 µM [falling, single point].
Turning to `Clc1ccc(OCc2nnc(-c3ccccc3Br)o2)cc1`, the cell number change came out at 0.0364%. In addition, under setting [1], the AC50 was 7.31 µM [falling, partial curve].
Regarding `COc1ccc(C(=O)c2c(-c3ccc(OC)cc3)oc3ccccc23)cc1`, the cell number change is -27.4%. The AC50 under setting [1] was 0.82 µM [falling, full curve, poor fit]. Further, the AC50 under setting [2] is 0.82 µM [falling, full curve, poor fit].
Turning to `O=C(N/N=C/c1ccc([N+](=O)[O-])cc1)c1cc(C2CC2)[nH]n1`, the cell number change stood at 34.6%.
Turning to `CC(=O)Nc1ccc(NC(=O)COC(=O)c2ccccc2C(=O)c2ccccc2)cc1`, the cell number change is -15.8%. Also, the AC50 under setting [2] was 0.259 µM [rising, partial curve, poor fit].
`Nc1c(N(Cc2ccco2)C(=O)c2cccc(F)c2)c(=O)[nH]c(=O)n1Cc1ccccc1`: the cell number change is -6.22%. In addition, the AC50 under setting [2] is 3.26 µM [rising, full curve, poor fit].
With `O=C(c1ccco1)N1CCCN(Cc2nc(-c3cccs3)no2)CC1`, the cell number change amounted to 9.37%. Moreover, the AC50 under setting [2] was 1.3 µM [rising, full curve, poor fit].
For `CCCCN(CC)C(=O)c1cccc(Cl)c1`, the cell number change turned out to be 7.47%. Also, the AC50 under setting [2] was 6.51 µM [falling, single point].
For `CCOc1ccc2c(c1)C(=NNC(=O)c1ccncc1)c1cc(OCC)ccc1-2`, the cell number change was -45.7%. Under setting [1], the AC50 was 18.4 µM [falling, partial curve]. For the same compound, the AC50 under setting [2] was 20.6 µM [falling, partial curve].
In the case of `COc1ccc(S(=O)(=O)CC(=O)Nc2ccccc2Cl)cc1`, the cell number change is -12.6%. Besides, under setting [2], the AC50 is 0.731 µM [falling, partial curve, poor fit].
For `CCc1ccc(Nc2nnc(SCc3cc(=O)n4ccsc4n3)s2)cc1`, the cell number change was 66.2%. Further, the AC50 under setting [1] is 8.2 µM [rising, partial curve, poor fit].
Turning to `Oc1ccc(N=Nc2nccs2)c(O)c1`, the cell number change came to 3.72%. In addition, the AC50 under setting [2] is 29.1 µM [falling, single point].
In the case of `CNCc1c(OCc2ccccc2)ccc2ccccc12`, the cell number change amounted to 10.6%.
On to `CCc1cc(=O)oc2cc(C)cc(OCC(=O)NC(Cc3ccc(Cl)cc3)C(=O)O)c12` (configuration not stated), for which the cell number change was 21%.
For the compound `CCCS(=O)(=O)c1c(S(=O)(=O)CCC)c2cnccn2c1C(=O)c1ccc(F)cc1`, the cell number change is -36.6%. The AC50 under setting [1] was 29.1 µM [falling, single point].
As to `O=c1c(-c2ccccc2)c(-c2ccccc2)oc2cc(O)cc(O)c12`, the cell number change is -68.6%. Further, the AC50 under setting [1] was 9.2 µM [falling, partial curve]. For the same compound, under setting [2], the AC50 is 13 µM [falling, partial curve].
`CCN(CC)CCNC(=O)c1ccc(NC(=O)c2cn(-c3ccc(F)cc3)nc2-c2cccc(OC)c2)cc1`: the cell number change was -3.63%.
Take `COCc1[nH]nc2c1C1(C(=O)N(C)c3ccccc31)C(C#N)=C(N)O2` (configuration not stated): the cell number change is -11%. In addition, the AC50 under setting [2] was 0.366 µM [falling, full curve].
Take `O=[N+]([O-])c1ccc(O)c(Nc2c([N+](=O)[O-])ccc3nonc23)c1`: the cell number change is -25%. Also, the AC50 under setting [2] is 29.1 µM [falling, single point].
On to `CCC(=O)N1Cc2ccccc2-c2ccccc2C1=O`, for which the concentration at half-maximal activity (AC50) under setting [2] is 29.1 µM [rising, single point].
With `CC(=O)Nc1ccc(NC(=O)CCCc2c[nH]c3ccccc23)cc1`, the cell number change is -38.6%. For the same compound, the AC50 under setting [1] was 9.2 µM [falling, partial curve]. Further, the AC50 under setting [2] was 11.6 µM [falling, partial curve].
In the case of `Cc1cccn2c(=O)c3cc(C(=O)NCCN4CCOCC4)c(=N)n(CCc4ccccc4)c3nc12`, the cell number change is -1.05%. Under setting [2], the AC50 is 0.146 µM [rising, partial curve, poor fit].
Consider `O=c1c2[nH]c3ccccc3c2ncn1C1CCCCC1`, for which the cell number change was -36%. Under setting [1], the AC50 was 23.1 µM [falling, single point]. For the same compound, the AC50 under setting [2] was 20.6 µM [falling, single point].
For the compound `O=S(=O)(c1ccccc1)c1cnn(-c2ccccc2)c1-c1ccc(F)cc1`, the cell number change turned out to be 1.12%. In addition, the AC50 under setting [1] was 0.103 µM [falling, full curve, poor fit]. Also, the AC50 under setting [2] was 0.366 µM [rising, full curve, poor fit].
Consider `Cc1cc(C)n(CCCNC(=O)Cn2nnnc2CN2C[C@@H](C)O[C@@H](C)C2)n1`, for which the cell number change was 38.5%. For the same compound, under setting [1], the AC50 is 1.16 µM [rising, partial curve, poor fit]. Further, the AC50 under setting [2] was 23.1 µM [rising, single point].
For the compound `Cn1c(=O)oc2cc(S(=O)(=O)NCCC(=O)NCc3ccccc3Cl)ccc21`, the cell number change amounted to 2.36%. In addition, the half-maximal activity concentration (AC50) under setting [2] was 29.1 µM [falling, single point].
With `O=C(NNc1ccccc1Cl)C(O)(c1cccc(C(F)(F)F)c1)c1cccc(C(F)(F)F)c1`, the cell number change was -72%. Moreover, under setting [1], the AC50 is 2.06 µM [falling, partial curve]. Also, the AC50 under setting [2] is 1.84 µM [falling, partial curve].
On to `CCN(CC)CCN1C(=O)C(O)=C(C(C)=O)C1c1ccccc1` (configuration not stated), for which the cell number change is -37.4%. Also, the AC50 under setting [1] was 0.146 µM [falling, full curve]. Also, the AC50 under setting [2] was 0.82 µM [falling, full curve].
As to `Cc1ccc(O)c(C(=O)/C=C/c2ccc3c(c2)OCCCO3)c1`, the cell number change is -33.1%. Also, the AC50 under setting [1] was 20.6 µM [falling, single point]. Moreover, under setting [2], the AC50 was 29.1 µM [rising, single point].
On to `Cc1ccc(NC(=O)NCCN2CCCCC2)cc1`, for which the cell number change was -16.3%.
`CCCc1[nH]n(-c2ccc([N+](=O)[O-])cc2)c(=O)c1C(C)=NCc1ccncc1`: the cell number change was determined as 10.4%. Further, the AC50 under setting [1] was 2.91 µM [rising, single point].
For `Cc1nc(N2CCOCC2)nc(N2CCCC2)c1[N+](=O)[O-]`, the cell number change was 7.61%. Further, under setting [2], the AC50 is 29.1 µM [rising, single point].
With `CCN(CC(O)CON=C1c2ccccc2-c2ccccc21)S(=O)(=O)c1ccc(C)cc1` (configuration not stated), the cell number change was -1.47%. Besides, the AC50 under setting [2] was 32.6 µM [falling, single point].
For `CCCCn1c(NC(=O)c2ccccc2)nc2ccccc21`, the cell number change is -25.9%. Under setting [2], the AC50 was 29.1 µM [falling, single point].
As for `Cc1ccc(NC(=O)c2ccc3[nH]c(=O)c(=O)[nH]c3c2)nc1`, the cell number change was determined as 8.02%. The concentration at half-maximal activity (AC50) under setting [2] is 29.1 µM [rising, single point].
In the case of `CCn1ncc(N(C)N)c(Cl)c1=O`, the cell number change was -3.73%. Also, the half-maximal activity concentration (AC50) under setting [1] was 0.651 µM [falling, single point]. Also, the AC50 under setting [2] is 0.651 µM [falling, single point].
As for `O=C(NCC1CCCO1)c1cccc(Br)c1` (configuration not stated), the cell number change was -7.34%. For the same compound, the AC50 under setting [2] is 0.651 µM [falling, full curve].
Take `COc1ccc(N(CC(=O)Nc2ccc3c(c2)OCO3)S(=O)(=O)c2ccc(F)cc2)cc1`: the cell number change was found to be 12.1%. Also, the AC50 under setting [2] is 18.4 µM [rising, single point].
As for `COc1ccc(C(=O)N[C@H](C(=O)N2CCN(c3ccccc3F)CC2)C(C)C)cc1`, the cell number change is 21.8%. Also, under setting [1], the AC50 is 0.103 µM [rising, full curve].
Take `O=C1NC(Cc2ccccc2)c2nc3ccccc3c(=O)n2-c2ccc(Cl)cc21` (configuration not stated): under setting [2], the AC50 was 7.31 µM [rising, partial curve].
Consider `Cc1ccc(NC(=O)Cc2nnc(SCC(=O)NC3=NCCS3)n2C)cc1`, for which the cell number change was 9.83%. Further, the AC50 under setting [2] was 18.4 µM [rising, single point].
Take `Cc1cc(C)c(NC(=O)CN2C(=O)NC3(CCCCC3)C2=O)c(Cl)c1`: the cell number change was 19.7%. Further, under setting [1], the AC50 is 0.0259 µM [rising, full curve, poor fit].
As for `Cc1sc(NC(=O)c2ccc(Br)s2)c(C(N)=O)c1C`, the cell number change is -5.42%. The AC50 under setting [1] is 0.146 µM [rising, full curve, poor fit].
Consider `Cc1cccc(C)c1N1CCN(C(=O)N2CCCCC2)CC1`, for which the cell number change was -28.3%. Besides, the AC50 under setting [2] is 0.517 µM [falling, full curve].
In the case of `COc1ccc(-c2oc(=O)c3cc(OC)c(OC)cc3c2C(F)(F)F)cc1`, the cell number change is 22.6%. Also, the AC50 under setting [2] is 1.46 µM [rising, full curve].
As for `CCN(C(=O)CN1c2ccccc2CC1C)c1c(N)n(Cc2ccccc2)c(=O)[nH]c1=O` (configuration not stated), the cell number change is -56%. Under setting [1], the AC50 is 5.8 µM [falling, full curve]. Also, the AC50 under setting [2] was 20.6 µM [falling, partial curve].
On to `CCCc1c(C(=O)N/N=C/c2cccc3ccccc23)nnn1-c1nonc1N`, for which the cell number change is -5.34%. Besides, the AC50 under setting [2] is 20.6 µM [falling, partial curve].
For the compound `COc1cc(OC)cc(C(=O)NNC(=S)Nc2ccc(S(N)(=O)=O)cc2)c1`, the cell number change is -19.3%. Besides, the AC50 under setting [1] is 0.146 µM [falling, full curve, poor fit].
For `COC(=O)CC1COc2ccccc2N1C(=O)c1ccc(OC)cc1` (configuration not stated), the AC50 under setting [2] was 13 µM [rising, partial curve].

For the origin of these results see PubChem BioAssay AID2685 (National Center for Advancing Translational Sciences (NCATS), 2010).
